Experimental data published in patent EP4825852A1, “COMPOUND HAVING PROTEIN TYROSINE KINASE BTK-DEGRADING ACTIVITY, AND PREPARATION METHOD THEREFOR AND USE THEREOF” (dated 2026).
The match of structure and compound is tentative.

Assays:
TMD8 cells = assay: TMD8 cell proliferation assay (CTG); conditions: read-out: TMD8 IC50, 72 h incubation, cell growth inhibition
Description: (§1) Mino or TMD8 cells were cultured in RPMI 1640 medium containing 10% fetal bovine serum (Gibco). After reaching the logarithmic growth phase, cells were collected, counted and seeded into 96-well plates at 2000 cells/well. Following overnight incubation, compounds were added to reach final concentrations of 1 µM, 200 nM, 40 nM, 8 nM, 1.6 nM, 0.32 nM, 0.064 nM, 0.0128 nM, 0.00256 nM and 0.00051 nM, with a final DMSO concentration of 0.2%. 0.2% DMSO and blank RPMI 1640 medium (without cells and compounds) were set as vehicle control and negative control, respectively. Two replicates were set for each concentration. After the test compound was mixed, the 96-well plate was placed in a 37°C, 5% CO2 incubator and cultured (Mino cells were incubated for 96 h, REC-1 and TMD8 cells were incubated for 72 h). After incubation, the plates were placed at room temperature, 50 µL of CTG reagent was added, and the plates were shaken for 2 min and incubated at room temperature for 10 min. The luminescence signal (RLU) in each well was measured using a microplate reader to calculate the cell growth inhibition rate, followed by fitting a dose-response curve to determine the half-inhibitory concentration (IC50). Table 1: IC50 of the exemplary compounds against TMD8/Mino cells

Mino cells = assay: Mino cell proliferation assay (CTG); conditions: read-out: Mino IC50, 96 h incubation, cell growth inhibition
Description: as §1

| Compound | IC50 (TMD8 cells) [nM] | IC50 (Mino cells) [nM] |
| --- | --- | --- |
| Cc1c(NC(=O)c2ccc(C(C)(C)O)cc2F)cc(F)cc1-c1cc(Nc2ccc(N3CCN(C(=O)[C@H]4C[C@@H](OCCNc5cccc6c5C(=O)N(C5CCC(=O)NC5=O)C6=O)C4)C[C@@H]3C)cn2)c(=O)n(C)c1 (some centres unmarked) | 2.7 | – |
| CN1CCN([C@@H]2CCCN(c3cnc(C(N)=O)c(Nc4ccc(C5CCN(C(=O)CN6CCC(n7ncc8c(N9CCC(=O)NC9=O)cccc87)CC6)CC5)cc4)n3)C2)C1=O | 1.7 | 0.2 |
| CN1CCN([C@@H]2CCCN(c3cnc(C(N)=O)c(Nc4ccc(C5CCN(C(=O)CN6CCC(n7ccc8c(N9CCC(=O)NC9=O)cc(Cl)cc87)CC6)CC5)cc4)n3)C2)C1=O | 1.5 | 0.81 |
| Cc1c(NC(=O)c2ccc(C(C)(C)O)c(F)c2F)cc(F)cc1-c1cc(Nc2ccc(N3CCN(CC4CN(c5cc(F)c(C6CCC(=O)NC6=O)c(F)c5)C4)C[C@@H]3C)cn2)c(=O)n(C)c1 (some centres unmarked) | – | 7.73 |
| Cc1c(NC(=O)c2ccc(C(C)(C)O)c(F)c2F)cc(F)cc1-c1cc(Nc2ccc(N3CCN(CC4CN(c5cc(F)c(C6CCC(=O)NC6=O)c(F)c5)C4)CC3)cn2)c(=O)n(C)c1 (centres unmarked) | 9.9 | 3.62 |
